The exact form of at least one protein or probe is not confirmed.

Protein sequences, listed by entry. Tags and fused reporters are not part of them. Residues count along the entry.
UniProt O42254, 387-573 Y396F: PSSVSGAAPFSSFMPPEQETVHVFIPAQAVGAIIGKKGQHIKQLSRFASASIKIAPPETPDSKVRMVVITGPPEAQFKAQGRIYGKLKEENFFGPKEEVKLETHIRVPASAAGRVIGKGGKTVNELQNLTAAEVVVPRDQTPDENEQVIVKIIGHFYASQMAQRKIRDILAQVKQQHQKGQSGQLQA

The target of the data set is IMP1 KH34 Y396F (Gallus gallus) (UniProt O42254). Briefly: BLI. Particulars: interferograms previously obtained (ref 19); BLI: 10 mM Na2HPO4 pH 6.5, 50 mM NaCl, 1 mM TCEP, 2 mg/ml BSA, 0.005% Tween-20, 25 C; recombinant protein; protein details: N-terminal 6xHis removed by TEV; label: 5' biotin.

The Kd is the constant that tells how readily two partners part at equilibrium. Take “ACCGGACUGUUACCAACACCCACACCCC [ACTB zipcode RNA, unmodified]”: the Kd is 20.9 nM.

The values above are taken from paper PMC10484666.
